In the supplement of paper PMC6411743:
± gives the standard deviation of the averaged measurements. Some of the results follow.

By UniProt entry, the sequences of proteins in these tests, tags left out. Where a name states a change or a piece, a line headed by the entry shows the natural chain unless it says otherwise.
UniProt Q9BXM9: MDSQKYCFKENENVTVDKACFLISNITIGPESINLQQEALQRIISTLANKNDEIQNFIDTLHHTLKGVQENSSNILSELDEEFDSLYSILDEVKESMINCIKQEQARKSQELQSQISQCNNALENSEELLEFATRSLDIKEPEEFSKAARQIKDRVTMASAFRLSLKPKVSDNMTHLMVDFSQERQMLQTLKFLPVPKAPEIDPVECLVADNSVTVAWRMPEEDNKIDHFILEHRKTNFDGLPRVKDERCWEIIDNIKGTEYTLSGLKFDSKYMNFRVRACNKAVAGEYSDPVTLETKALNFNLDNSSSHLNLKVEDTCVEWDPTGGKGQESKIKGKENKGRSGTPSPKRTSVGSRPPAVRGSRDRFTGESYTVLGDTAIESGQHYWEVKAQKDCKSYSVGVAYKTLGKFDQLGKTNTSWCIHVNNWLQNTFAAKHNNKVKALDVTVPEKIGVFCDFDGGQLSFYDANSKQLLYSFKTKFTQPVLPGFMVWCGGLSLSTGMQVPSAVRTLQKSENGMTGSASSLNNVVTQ
UniProt A1X283: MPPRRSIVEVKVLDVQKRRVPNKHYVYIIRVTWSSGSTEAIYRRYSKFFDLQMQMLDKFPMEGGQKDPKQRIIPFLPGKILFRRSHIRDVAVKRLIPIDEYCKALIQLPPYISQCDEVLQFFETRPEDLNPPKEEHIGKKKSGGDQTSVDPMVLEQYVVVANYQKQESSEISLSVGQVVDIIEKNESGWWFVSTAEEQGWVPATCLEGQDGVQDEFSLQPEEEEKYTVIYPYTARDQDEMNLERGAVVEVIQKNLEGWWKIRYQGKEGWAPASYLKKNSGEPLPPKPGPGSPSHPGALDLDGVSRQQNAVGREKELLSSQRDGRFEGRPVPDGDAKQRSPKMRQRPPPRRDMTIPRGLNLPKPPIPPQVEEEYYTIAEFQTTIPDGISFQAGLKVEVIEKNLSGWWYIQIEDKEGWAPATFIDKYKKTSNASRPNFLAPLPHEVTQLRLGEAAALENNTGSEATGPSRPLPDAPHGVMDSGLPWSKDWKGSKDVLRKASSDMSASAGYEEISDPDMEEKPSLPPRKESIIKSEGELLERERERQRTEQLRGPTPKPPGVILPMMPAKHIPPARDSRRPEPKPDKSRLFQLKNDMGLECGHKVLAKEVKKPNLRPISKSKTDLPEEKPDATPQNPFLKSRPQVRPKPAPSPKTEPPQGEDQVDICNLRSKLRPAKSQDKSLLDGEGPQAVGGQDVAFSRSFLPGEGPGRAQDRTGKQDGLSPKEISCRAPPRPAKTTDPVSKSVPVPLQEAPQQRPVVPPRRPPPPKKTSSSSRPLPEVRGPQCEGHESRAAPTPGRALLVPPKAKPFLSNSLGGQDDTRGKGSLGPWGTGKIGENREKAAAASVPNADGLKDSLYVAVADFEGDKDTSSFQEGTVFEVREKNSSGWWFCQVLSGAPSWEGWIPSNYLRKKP
UniProt Q96CW1: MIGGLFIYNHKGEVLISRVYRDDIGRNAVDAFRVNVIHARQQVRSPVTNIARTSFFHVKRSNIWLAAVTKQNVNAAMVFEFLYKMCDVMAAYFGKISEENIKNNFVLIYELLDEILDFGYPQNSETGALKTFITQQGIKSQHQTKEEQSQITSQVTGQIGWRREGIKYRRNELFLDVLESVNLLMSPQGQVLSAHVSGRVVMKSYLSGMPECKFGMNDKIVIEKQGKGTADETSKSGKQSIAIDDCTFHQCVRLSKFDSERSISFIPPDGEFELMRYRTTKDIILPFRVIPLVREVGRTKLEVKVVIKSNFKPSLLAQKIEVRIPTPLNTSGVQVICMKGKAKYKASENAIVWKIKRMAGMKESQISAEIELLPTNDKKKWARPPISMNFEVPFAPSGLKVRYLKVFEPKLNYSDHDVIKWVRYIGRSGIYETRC

Compound: Nc1nc2c(ncn2[C@@H]2O[C@H](COP(=O)(O)OP(=O)(O)OP(=O)(O)O)[C@@H](O)[C@H]2O)c(=O)[nH]1 [guanosine triphosphate]
Test: NP40-soluble protein abundance relative to vehicle (solubility fold change) (ratio); higher = more soluble protein in presence of GTP
Description: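 Solubility proteome profiling in Jurkat crude lysate. Lysate was treated with Mg-GTP (0.1-10 mM) for 10 min at room temperature and 3 min at 37 °C, then solubilised with 0.8% NP40 and benzonase, followed by ultracentrifugation. Proteins were quantified by TMT10 LC-MS/MS; the value is the NP40-soluble abundance relative to the NP40-processed vehicle, from 3 independent experiments.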

A0A0A0MRS5|A0A0C4DG97|F8W946 and related entries (UniProt Q9BXM9)
NP40-soluble protein abundance (concentration: 0.1mM): 1.02 ± 0.054
NP40-soluble protein abundance (concentration: 0.5mM): 0.993 ± 0.033
NP40-soluble protein abundance (concentration: 1mM): 1.02 ± 0.1
NP40-soluble protein abundance (concentration: 2mM): 0.977 ± 0.088
NP40-soluble protein abundance (concentration: 4mM): 0.989 ± 0.11
NP40-soluble protein abundance (concentration: 6mM): 0.947 ± 0.085
NP40-soluble protein abundance (concentration: 8mM): 0.986 ± 0.091
NP40-soluble protein abundance (concentration: 10mM): 0.918 ± 0.066

A0A0C4DGG1|Q9UKS6 (UniProt Q9UKS6)
NP40-soluble protein abundance (concentration: 0.1mM): 0.979 ± 0.1
NP40-soluble protein abundance (concentration: 0.5mM): 0.988 ± 0.17
NP40-soluble protein abundance (concentration: 1mM): 1 ± 0.12
NP40-soluble protein abundance (concentration: 2mM): 0.981 ± 0.13
NP40-soluble protein abundance (concentration: 4mM): 0.978 ± 0.095
NP40-soluble protein abundance (concentration: 6mM): 1.05 ± 0.16
NP40-soluble protein abundance (concentration: 8mM): 1.02 ± 0.17
NP40-soluble protein abundance (concentration: 10mM): 1.08 ± 0.12

SH3PXD2B (UniProt A1X283)
NP40-soluble protein abundance (concentration: 0.1mM): 1.02 ± 0.062
NP40-soluble protein abundance (concentration: 0.5mM): 1.01 ± 0.052
NP40-soluble protein abundance (concentration: 1mM): 1.05 ± 0.036
NP40-soluble protein abundance (concentration: 2mM): 1 ± 0.07
NP40-soluble protein abundance (concentration: 4mM): 0.941 ± 0.079
NP40-soluble protein abundance (concentration: 6mM): 1.01 ± 0.064
NP40-soluble protein abundance (concentration: 8mM): 0.99 ± 0.058
NP40-soluble protein abundance (concentration: 10mM): 1.01 ± 0.1

A0A0D9SGF6|Q13813 and related entries (UniProt Q13813)
NP40-soluble protein abundance (concentration: 0.1mM): 0.92 ± 0.054
NP40-soluble protein abundance (concentration: 0.5mM): 0.96 ± 0.073
NP40-soluble protein abundance (concentration: 1mM): 0.96 ± 0.063
NP40-soluble protein abundance (concentration: 2mM): 0.956 ± 0.066
NP40-soluble protein abundance (concentration: 4mM): 1.04 ± 0.067
NP40-soluble protein abundance (concentration: 6mM): 1.17 ± 0.076
NP40-soluble protein abundance (concentration: 8mM): 1.28 ± 0.079
NP40-soluble protein abundance (concentration: 10mM): 1.33 ± 0.12

A0A087WY71|Q96CW1 and related entries (UniProt Q96CW1)
NP40-soluble protein abundance (concentration: 0.1mM): 1.09 ± 0.11
NP40-soluble protein abundance (concentration: 0.5mM): 1.12 ± 0.17
NP40-soluble protein abundance (concentration: 1mM): 0.947 ± 0.078
NP40-soluble protein abundance (concentration: 2mM): 1.04 ± 0.16
NP40-soluble protein abundance (concentration: 4mM): 1.04 ± 0.14
NP40-soluble protein abundance (concentration: 6mM): 1.03 ± 0.13
NP40-soluble protein abundance (concentration: 8mM): 0.941 ± 0.023
NP40-soluble protein abundance (concentration: 10mM): 0.95 ± 0.09
